# In the supplement of paper PMC10735217:
# Structures can show the parent of a compound that is named as a salt. This is one part of the list. This data set is noisy: repeats of one test often differ as much as different tests do.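 The human kidney-derived cells carry a stably integrated construct of eight TEAD-binding elements driving luciferase, read by luminescence in a drug-repurposing library screen. A compound counts as a hit when its signal is more than five robust Z scores above the plate mean.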
# System: HEK293A TEAD-LUC reporter
# Assay: TEAD-luciferase reporter activity (YAP activation), robust Z score vs plate; higher = stronger YAP/TEAD activation
# Settings: 24 h
SMILES,TEAD-luciferase reporter activity (compound concentration: 200 nM),TEAD-luciferase reporter activity (compound concentration: 2 uM),TEAD-luciferase reporter activity (compound concentration: 10 uM)
CCCC[C@H](NC(=O)[C@H](CCCC)NC(=O)[C@H](CCCC)NC(=O)[C@H](CCCNC(=N)N)NC(=O)[C@H](CCCC)NC(=O)[C@H](CCCC)NC(=O)[C@H](CCCC)NC(=O)[C@@H](N)CCCNC(=N)N)C(=O)NCC(=O)N[C@@H](Cc1ccc(O)cc1)C(N)=O,inactive: 0.00725,inactive: 1.13,inactive: 1.11
CNS(=O)(=O)CC1CCC(N(C)c2ncnc3[nH]ccc23)CC1 (centres undefined) [Oclacitinib],inactive: 1.18,inactive: 1.66,inactive: 0.26
COC(=O)C1CSC(c2ncccc2O)=N1 (centres undefined),inactive: -0.631,inactive: 0.401,inactive: -0.191
CC[C@H](CC#N)OC(=O)N[C@@H](C)c1cccc(NC(=O)Nc2ccc(-c3cnco3)c(OC)c2)c1,inactive: -0.849,inactive: -0.81,inactive: 1.12
COc1ccc(C(C)(C)C)cc1[C@](O)(c1ccccc1OCC(N)=O)[C@@H](C)N(C)C,inactive: 0.217,inactive: -0.224,inactive: 0.626
CCN1CCC(Oc2c(C#N)ncc3[nH]c4ncccc4c23)CC1,inactive: -1.01,inactive: -0.792,inactive: 2.09
CCCCCCCCCCCCOS(=O)(=O)[O-] [Sodium lauryl sulfate],inactive: 0.854,inactive: -0.681,inactive: -0.222
CN(C)c1cccc(F)c1C(=O)NC(=O)Nc1ccc(Cl)cc1 [Clanfenur (INN)],inactive: -1.3,inactive: -0.254,inactive: 0.101
O=C(Nc1ccc(C2CCN([C@H](C(=O)O)c3ccccc3)CC2)cc1)c1ccccc1-c1ccc(C(F)(F)F)cc1 [metabolite of Usistapide],inactive: 0.0861,inactive: -1.84,inactive: 1.32
CCCCCOc1ccc(-c2ccc(-c3ccc(C(=O)NC4CC(O)C(O)NC(=O)C5C(O)C(C)CN5C(=O)C(C(C)O)NC(=O)C(C(O)C(O)c5ccc(O)cc5)NC(=O)C5CC(O)CN5C(=O)C(C(C)O)NC4=O)cc3)cc2)cc1 (centres undefined) [anidulafungin],inactive: 0.0789,inactive: -1.23,inactive: -1.04
"CCCCC[C@H](O)/C=C/[C@@H]1[C@H]2C/C=C\CCCC(=O)O[C@H]2C[C@H]1O [Prostaglandin F2? 1,9-lactone]",inactive: -2.05,inactive: -0.601,inactive: 0.651
Cc1cccc(C)c1N(CC(=O)Nc1ccc(-c2ncon2)cc1)C(=O)C1CCS(=O)(=O)CC1,inactive: -1.68,inactive: 1.15,inactive: 1.08
NS(=O)(=O)OC[C@H]1C[C@@H](Nc2ccnc3cc(-c4cccc(SC(F)(F)F)c4)nn23)[C@H](O)[C@@H]1O,inactive: -3.02,inactive: -3.46,inactive: -3.83
CC(=O)OCC1=C(C(=O)O)N2C(=O)[C@@H](NC(=O)CSc3ccncc3)[C@H]2SC1,inactive: -1.11,inactive: -0.509,inactive: 0.0785
C=C(C)C1CCC2(C(=O)NCCc3cccc(C(=O)NCc4ccc(C(=O)NCCc5cnc[nH]5)cn4)c3)CCC3(C)C(CCC4C5(C)CCC(O)C(C)(C)C5CCC43C)C12 (centres undefined),inactive: 4.5,inactive: -0.0357,inactive: 3.51
COc1ccccc1NC(=O)CCN1CCN(C(c2ccc(F)cc2)c2ccc(F)cc2)CC1,inactive: -1.03,inactive: -0.212,inactive: -0.402
C[C@H]1CC[C@H](n2c3cnccc3c3cnc(Nc4ccc5c(n4)CCN(C(=O)CO)C5)nc32)CC1,inactive: -1.09,inactive: -2.02,inactive: 1.63
"Oc1cccc2cc3cccc(O)c3c(O)c12 [dithranol, Bioglan]",inactive: -0.611,,inactive: -1.15
Oc1cccc2cc3cccc(O)c3c(O)c12 [dithranol],,inactive: -1.42,
CO[C@H]1C[C@@H]2CC[C@@H](C)[C@@](O)(O2)C(=O)C(=O)N2CCCC[C@H]2C(=O)O[C@H]([C@H](C)C[C@@H]2CC[C@@H](OC(=O)C(C)(CO)CO)[C@H](OC)C2)CC(=O)[C@H](C)/C=C(\C)[C@@H](O)[C@@H](OC)C(=O)[C@H](C)C[C@H](C)\C=C/C=C/C=C/1C [Temsirolimus],inactive: -0.951,inactive: -0.852,inactive: 3.33
Nc1nc(N)c2nc(-c3ccccc3)c(N)nc2n1 [Triamterene396-01-0],inactive: -1.08,,inactive: -1.01
Nc1nc(N)c2nc(-c3ccccc3)c(N)nc2n1 [triamterene],,inactive: 1.21,
Clc1cccc(Nc2ccncc2)c1,inactive: -0.0845,inactive: -0.652,inactive: 2.71
CC(C)(Sc1ccncc1-c1ccc(C#N)c2ccccc12)C(=O)O,inactive: 0.338,inactive: -0.92,inactive: 1.37
CCCc1c2nc(-c3cc(S(=O)(=O)N4CCN(C)CC4)ccc3OCC)[nH]c(=O)c2nn1C,inactive: -0.189,,inactive: 1.11
CCCc1c2nc(-c3cc(S(=O)(=O)N4CCN(C)CC4)ccc3OCC)[nH]c(=O)c2nn1C [iso-Sildenafil],,active: 5.28,
CC(C)c1cc(Oc2c(Cl)cc(-n3nc(C#N)c(=O)[nH]c3=O)cc2Cl)n[nH]c1=O,inactive: -0.774,inactive: -0.654,inactive: -0.146

SMILES,TEAD-luciferase reporter activity (compound concentration: 200 nM),TEAD-luciferase reporter activity (compound concentration: 2 uM),TEAD-luciferase reporter activity (compound concentration: 10 uM)
Nc1nc(=O)n([C@@H]2CS[C@H](CO)O2)cc1F [Emtricitabine],inactive: -0.681,,inactive: 0.566
O=C(O)c1ccc(NC(=O)C(CC2CCCC2)n2cnc(C(F)(F)F)c2)nc1 (centres undefined),inactive: -0.205,inactive: -0.544,inactive: 1.27
Cc1ccc(S(=O)(=O)NC(=O)NN2CCCCCC2)cc1 [Tolazamide],,inactive: -0.694,
Cc1ccc(S(=O)(=O)NC(=O)NN2CCCCCC2)cc1,inactive: 0.943,,inactive: -2.16
CC1(C)OC(=O)C(Oc2ccc(Br)cn2)=C1c1ccc(S(C)(=O)=O)cc1,inactive: -1,inactive: -0.0126,inactive: -1.01
COc1cccc(CCc2ccccc2OCC[C@@H]2C[C@@H](O)CN2C)c1,inactive: -0.975,inactive: -0.101,inactive: 2.66
COc1ccc(CC(=O)N2Cc3ccccc3CC3(CCN(C)CC3)C2)cc1,inactive: 1.38,,inactive: -0.261
O=C(c1cnc(Nc2cccc(Cl)c2)nc1C(F)(F)F)N1CCC1,inactive: -1.35,inactive: 0.784,inactive: -0.534
CC(=O)N[C@H]1[C@H]([C@H](O)[C@H](O)CO)OC(C(=O)O)=C[C@@H]1NC(=N)N [zanamivir],inactive: -1.03,inactive: 3.55,inactive: 4.1
CN(C)CC(O)COc1ccc(-c2nc3c(N)nc(N)nc3nc2N)cc1 (centres undefined),inactive: -0.3,inactive: 0.165,inactive: 1.47
CCCCNC(=N)NC(=N)N,inactive: -1.99,inactive: -1.38,active: 7.2
O=C1C(=O)C(O)C(=O)C(O)C1=O (centres undefined),inactive: -2.19,inactive: 0.348,inactive: 4.38
CCCCOC(=O)NC(CNC(=O)CC1CC(c2ccc(C(=N)N)cc2)=NO1)C(=O)OC (centres undefined),inactive: -2.28,inactive: -0.561,inactive: -0.528
CC1(C)[C@H]2CC[C@]1(CS(=O)(=O)N(C1CCCCC1)C1CCCCC1)[C@@H](O)C2,inactive: -0.868,inactive: 2.78,inactive: 4.62
Nc1ncn([C@@H]2O[C@H](CO)[C@@H](O)[C@H]2O)c(=O)n1 [5-Azacytidine],inactive: 4.41,active: 8.51,inactive: -0.863
[O-][n+]1cccc2c1Nc1ccc(F)cc1C2(OCC1CC1)C(F)(F)F (centres undefined),inactive: -0.952,inactive: 0.282,inactive: 3.19
CC(C)COc1ccc(CNC(=O)NCCCCN2CCCC(C)C2)cc1 (centres undefined),inactive: -1.19,inactive: 0.395,inactive: 0.673
CC(=O)Nc1ccc(OC(=O)/C=C(C)/C=C/C=C(C)/C=C/C2=C(C)CCCC2(C)C)cc1,inactive: 1.76,inactive: -0.876,inactive: -0.969
N[C@@H](CCC(=O)N[C@@H](Cc1ccc(O)c(O)c1)C(=O)O)C(=O)O [Gludopa],inactive: 0.171,inactive: 0.362,inactive: 1.2
O=C1C[C@@H]2CCN(C(=O)Cc3ccccc3)C[C@@H]2CCN1,inactive: 0.243,,inactive: 2.7
O=C(Nc1ccc(C(=O)N2C[C@H]3CCCN3Cc3ccccc32)cc1)c1ccccc1-c1ccccc1,inactive: -0.447,inactive: -1.05,inactive: 2.07
O=c1[nH]c2cc3cc(OCCCCNC4CCCCC4)ccc3nc2[nH]1,inactive: -0.54,inactive: -1.59,inactive: -1.29
NC(=O)c1noc([C@H](CCCC2CCCCC2)CC(=O)NO)n1,inactive: -0.172,inactive: 0.347,inactive: -0.892
CCn1nnc([C@H]2O[C@@H](n3cnc4c(N)nc(NC(CO)Cc5ccccc5)nc43)[C@H](O)[C@@H]2O)n1 (some centres undefined),inactive: -1.97,inactive: -0.507,inactive: 0.0865
COc1cc(/C=N/NC(=O)c2ccncc2)ccc1O,inactive: -0.866,inactive: -0.61,inactive: -1.6
CC(Cc1cccc(C(F)(F)F)c1)NCCOC(=O)c1ccccc1 (centres undefined) [benfluorex],inactive: -0.277,inactive: 0.453,inactive: 0.245

# A portion of the results above:
SMILES,TEAD-luciferase reporter activity (compound concentration: 200 nM),TEAD-luciferase reporter activity (compound concentration: 2 uM),TEAD-luciferase reporter activity (compound concentration: 10 uM)
CC(=O)OCC1=C(C(=O)O)N2C(=O)[C@@H](NC(=O)CSc3ccncc3)[C@H]2SC1,inactive: -1.11,inactive: -0.509,inactive: 0.0785
C=C(C)C1CCC2(C(=O)NCCc3cccc(C(=O)NCc4ccc(C(=O)NCCc5cnc[nH]5)cn4)c3)CCC3(C)C(CCC4C5(C)CCC(O)C(C)(C)C5CCC43C)C12 (centres undefined),inactive: 4.5,inactive: -0.0357,inactive: 3.51
COc1ccccc1NC(=O)CCN1CCN(C(c2ccc(F)cc2)c2ccc(F)cc2)CC1,inactive: -1.03,inactive: -0.212,inactive: -0.402
